According to patent US4530838A (The Salk Institute for Biological Studies, priority 1983, dated 1985):

Assay: Boc solid-phase peptide synthesis; benzhydrylamine resin; N,N'-dicyclohexyl carbodiimide (DCCI)
Settings: whole synthesis, HPLC

PEPTIDE1{S.C.N.T.A.T.C.V.T.H.R.L.A.G.L.L.S.R.S.G.G.V.V.K.D.N.F.V.P.T.N.V.G.S.E.A.F.[am]}$PEPTIDE1,PEPTIDE1,2:R3-7:R3$$$V2.0
final purity (method not given): about 95% or greater

Strings that start with PEPTIDE1 are HELM notation: dots part the residues, brackets hold end groups and non-standard residues.
